Laboratory results: paper PMC7862700
The list shows a part of the results, in another mix than the full data. For part of these data: At the low end of the ranking, values are background and their order means little. Some of the results follow. For part of these data: The source does not settle which construct or isoform was used.

Chains of the proteins cited; added tags and fusions are not shown. Lines headed by an entry give the natural chain unless they say otherwise; changes in a name come on top.
UniProt Q00613: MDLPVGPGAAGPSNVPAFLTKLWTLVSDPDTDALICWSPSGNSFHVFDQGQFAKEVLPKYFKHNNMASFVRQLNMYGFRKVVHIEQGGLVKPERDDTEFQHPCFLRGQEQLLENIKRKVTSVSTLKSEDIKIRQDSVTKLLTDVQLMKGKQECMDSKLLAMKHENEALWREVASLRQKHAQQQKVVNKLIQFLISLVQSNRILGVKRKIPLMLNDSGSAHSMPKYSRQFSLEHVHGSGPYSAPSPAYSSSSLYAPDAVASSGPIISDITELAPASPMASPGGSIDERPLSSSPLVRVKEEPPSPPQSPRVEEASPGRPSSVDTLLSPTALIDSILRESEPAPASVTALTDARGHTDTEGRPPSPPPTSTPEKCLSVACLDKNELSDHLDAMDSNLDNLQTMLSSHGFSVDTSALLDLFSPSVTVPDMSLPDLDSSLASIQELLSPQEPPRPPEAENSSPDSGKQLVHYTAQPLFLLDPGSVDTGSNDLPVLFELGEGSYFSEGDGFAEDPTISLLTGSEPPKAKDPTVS

What was measured:
HSF1 = HSF1 (UniProt Q00613); test: DAPPL (digital affinity profiling via proximity ligation, sequencing); conditions: 10 mM Tris-HCl pH 7.5, 50 mM NaCl, 1 mM DTT, 4% glycerol, room temperature, 30 min; GST-TFs on glutathione beads, 16-mer random dsDNA library, 0.1% …; high values mean tight binding; double strand, one strand shown; scale: fold enrichment (6-mer frequency, TF over GST control)
ELF2 = biological target: T1, ELF2 (UniProt Q15723); test: as above; conditions: 10 mM Tris-HCl pH 7.5, 50 mM NaCl, 1 mM DTT, 4% glycerol, room temperature, 30 min; GST-TFs on glutathione beads, 16-mer random dsDNA library, 0.1% …; high values mean tight binding; double strand, one strand shown; scale: fold enrichment (6-mer frequency, TF over GST control)
T1 sequence: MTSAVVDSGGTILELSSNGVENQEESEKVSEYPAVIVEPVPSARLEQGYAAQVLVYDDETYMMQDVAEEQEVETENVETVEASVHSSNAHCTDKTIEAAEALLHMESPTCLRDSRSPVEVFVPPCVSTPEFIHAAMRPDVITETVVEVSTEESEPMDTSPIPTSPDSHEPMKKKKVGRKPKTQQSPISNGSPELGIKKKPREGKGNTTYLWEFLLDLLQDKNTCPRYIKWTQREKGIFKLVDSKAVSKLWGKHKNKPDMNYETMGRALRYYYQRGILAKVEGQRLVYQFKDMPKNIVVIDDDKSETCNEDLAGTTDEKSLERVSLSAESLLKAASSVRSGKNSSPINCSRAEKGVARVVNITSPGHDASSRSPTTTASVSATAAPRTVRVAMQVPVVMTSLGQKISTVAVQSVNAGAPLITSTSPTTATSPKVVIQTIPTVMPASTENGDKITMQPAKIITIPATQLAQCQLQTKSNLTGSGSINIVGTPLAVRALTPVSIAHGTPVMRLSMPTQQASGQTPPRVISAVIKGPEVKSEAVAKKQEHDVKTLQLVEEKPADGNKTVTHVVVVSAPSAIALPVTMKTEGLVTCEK

## AGGTAG
HSF1
  binding signal: 0.585
ELF2
  binding signal: 0.665

## GGACCC
HSF1
  binding signal: 0.624
ELF2
  binding signal: 0.861

## GGGATG
HSF1
  binding signal: 0.782
ELF2
  binding signal: 0.922

## GTGATT
HSF1
  binding signal: 0.847
ELF2
  binding signal: 0.727

## TGAAGT
HSF1
  binding signal: 0.703
ELF2
  binding signal: 0.731

## CGGGTC
HSF1
  binding signal: 0.512
ELF2
  binding signal: 0.745

## AGCCAA
HSF1
  binding signal: 0.82
ELF2
  binding signal: 0.863

## GACTGT
HSF1
  binding signal: 0.425
ELF2
  binding signal: 0.418

## ATCGTG
HSF1
  binding signal: 0.415
ELF2
  binding signal: 0.393

## GGGTGC
HSF1
  binding signal: 0.572
ELF2
  binding signal: 0.772

## GGTGCC
HSF1
  binding signal: 0.557
ELF2
  binding signal: 0.754

## GGACGT
HSF1
  binding signal: 0.398
ELF2
  binding signal: 0.632

## GAGAAG
HSF1
  binding signal: 1.22
ELF2
  binding signal: 0.681

## AGGACT
HSF1
  binding signal: 0.863
ELF2
  binding signal: 0.925

## TCGTAG
HSF1
  binding signal: 0.849
ELF2
  binding signal: 0.776

## GCATCA
HSF1
  binding signal: 0.64
ELF2
  binding signal: 0.699

## CCATGA
HSF1
  binding signal: 0.787
ELF2
  binding signal: 0.797

## GGGCGC
HSF1
  binding signal: 0.445
ELF2
  binding signal: 0.568

## GGTCAA
HSF1
  binding signal: 0.709
ELF2
  binding signal: 0.839

## CAGTCG
HSF1
  binding signal: 0.182
ELF2
  binding signal: 0.173

## GCTGTC
HSF1
  binding signal: 0.712
ELF2
  binding signal: 0.852

## CCAGTG
HSF1
  binding signal: 0.457
ELF2
  binding signal: 0.425

## AGGGGT
HSF1
  binding signal: 0.72
ELF2
  binding signal: 0.81

## GAGACG
HSF1
  binding signal: 0.292
ELF2
  binding signal: 0.309

## TGGGGG
HSF1
  binding signal: 0.616
ELF2
  binding signal: 0.714

## GAGTCT
HSF1
  binding signal: 0.437
ELF2
  binding signal: 0.392

## AGGATC
HSF1
  binding signal: 1.08
ELF2
  binding signal: 0.836

## GAGAGA
HSF1
  binding signal: 0.584
ELF2
  binding signal: 0.409

## GCAGAG
HSF1
  binding signal: 0.551
ELF2
  binding signal: 0.636

## TGTAGG
HSF1
  binding signal: 0.682
ELF2
  binding signal: 0.792

## GTGAAG
HSF1
  binding signal: 0.543
ELF2
  binding signal: 0.574

## AGTTGT
HSF1
  binding signal: 0.645
ELF2
  binding signal: 0.822

## GGGACC
HSF1
  binding signal: 0.496
ELF2
  binding signal: 0.635

## GGTGTG
HSF1
  binding signal: 0.547
ELF2
  binding signal: 0.661

## CCTGTC
HSF1
  binding signal: 0.657
ELF2
  binding signal: 0.917

## TGACAG
HSF1
  binding signal: 0.801
ELF2
  binding signal: 0.912

## GCCGGC
HSF1
  binding signal: 0.628
ELF2
  binding signal: 0.75

## CCATCG
HSF1
  binding signal: 0.856
ELF2
  binding signal: 0.782

## GGACAG
HSF1
  binding signal: 0.466
ELF2
  binding signal: 0.534

## CCAGCC
HSF1
  binding signal: 0.721
ELF2
  binding signal: 0.73

## CAGACG
HSF1
  binding signal: 0.474
ELF2
  binding signal: 0.456

## GCCGAG
HSF1
  binding signal: 0.712
ELF2
  binding signal: 0.58

## CCAAGG
HSF1
  binding signal: 0.834
ELF2
  binding signal: 0.875

## AGCGGA
HSF1
  binding signal: 0.473
ELF2
  binding signal: 0.991

## GGCGTA
HSF1
  binding signal: 0.553
ELF2
  binding signal: 0.642

## GTGAGA
HSF1
  binding signal: 0.283
ELF2
  binding signal: 0.296

## ACCAGA
HSF1
  binding signal: 1.55
ELF2
  binding signal: 0.876

## GTCAGT
HSF1
  binding signal: 0.482
ELF2
  binding signal: 0.589

## CGGGGG
HSF1
  binding signal: 0.385
ELF2
  binding signal: 0.431

## GGGGTA
HSF1
  binding signal: 0.608
ELF2
  binding signal: 0.718

## GGGACA
HSF1
  binding signal: 0.516
ELF2
  binding signal: 0.631

## CCGTGC
HSF1
  binding signal: 0.491
ELF2
  binding signal: 0.614

## GTCAGC
HSF1
  binding signal: 0.53
ELF2
  binding signal: 0.709

## GGAGTT
HSF1
  binding signal: 0.416
ELF2
  binding signal: 0.471

## GAGCCC
HSF1
  binding signal: 0.614
ELF2
  binding signal: 0.692

## AAGGGG
HSF1
  binding signal: 0.812
ELF2
  binding signal: 0.904

## GCATAA
HSF1
  binding signal: 0.899
ELF2
  binding signal: 0.854

## CGGGGT
HSF1
  binding signal: 0.518
ELF2
  binding signal: 0.645

## TGGGCC
HSF1
  binding signal: 0.678
ELF2
  binding signal: 0.855

## CAAGTC
HSF1
  binding signal: 0.751
ELF2
  binding signal: 0.788

## AGAGCC
HSF1
  binding signal: 0.644
ELF2
  binding signal: 0.692

## CCGAGA
HSF1
  binding signal: 0.952
ELF2
  binding signal: 0.582

## ACGGCG
HSF1
  binding signal: 0.619
ELF2
  binding signal: 0.782

## CACCGT
HSF1
  binding signal: 0.599
ELF2
  binding signal: 0.618

## GACCCG
HSF1
  binding signal: 0.619
ELF2
  binding signal: 0.967

## GCATTG
HSF1
  binding signal: 0.667
ELF2
  binding signal: 0.796

## ACCGCG
HSF1
  binding signal: 0.701
ELF2
  binding signal: 0.851

## GATCCG
HSF1
  binding signal: 0.886
ELF2
  binding signal: 1.02

## GGCGCA
HSF1
  binding signal: 0.47
ELF2
  binding signal: 0.579

## CAGCGG
HSF1
  binding signal: 0.325
ELF2
  binding signal: 0.466

## GTGGTG
HSF1
  binding signal: 0.62
ELF2
  binding signal: 0.865

## AGTAGA
HSF1
  binding signal: 0.798
ELF2
  binding signal: 0.816

## GTCGAT
HSF1
  binding signal: 0.699
ELF2
  binding signal: 0.663

## GACGCC
HSF1
  binding signal: 0.664
ELF2
  binding signal: 0.809

## GAGGCG
HSF1
  binding signal: 0.328
ELF2
  binding signal: 0.401

## CGTGCA
HSF1
  binding signal: 0.553
ELF2
  binding signal: 0.659

## TGAGGG
HSF1
  binding signal: 0.617
ELF2
  binding signal: 0.614

## CAGAGT
HSF1
  binding signal: 0.593
ELF2
  binding signal: 0.614

## GGAGTC
HSF1
  binding signal: 0.196
ELF2
  binding signal: 0.215

## GACCCT
HSF1
  binding signal: 0.795
ELF2
  binding signal: 0.895

## TCCGTG
HSF1
  binding signal: 0.379
ELF2
  binding signal: 0.61

## AACCAG
HSF1
  binding signal: 0.852
ELF2
  binding signal: 0.885

## GACGTG
HSF1
  binding signal: 0.293
ELF2
  binding signal: 0.322

## GAGCGC
HSF1
  binding signal: 0.457
ELF2
  binding signal: 0.573

## GCCAAA
HSF1
  binding signal: 0.825
ELF2
  binding signal: 0.872

## TCGGAG
HSF1
  binding signal: 0.197
ELF2
  binding signal: 0.182

## CGCAGC
HSF1
  binding signal: 0.634
ELF2
  binding signal: 0.783

## GGGTAG
HSF1
  binding signal: 0.581
ELF2
  binding signal: 0.62

## AGGGGG
HSF1
  binding signal: 0.543
ELF2
  binding signal: 0.559

## GGCACG
HSF1
  binding signal: 0.711
ELF2
  binding signal: 0.779

## AATCGG
HSF1
  binding signal: 0.682
ELF2
  binding signal: 0.545

## CAGAGG
HSF1
  binding signal: 0.594
ELF2
  binding signal: 0.599

## TGCGTG
HSF1
  binding signal: 0.541
ELF2
  binding signal: 0.569

## GAGCTG
HSF1
  binding signal: 0.696
ELF2
  binding signal: 0.722

## GGCCCA
HSF1
  binding signal: 0.656
ELF2
  binding signal: 0.743

## GGGATC
HSF1
  binding signal: 0.705
ELF2
  binding signal: 0.614

## AGGCAG
HSF1
  binding signal: 0.465
ELF2
  binding signal: 0.539

## GACGGA
HSF1
  binding signal: 0.415
ELF2
  binding signal: 0.534

## TCAGCG
HSF1
  binding signal: 0.655
ELF2
  binding signal: 0.787

## CAGCTG
HSF1
  binding signal: 0.746
ELF2
  binding signal: 0.79

## AGTCAC
HSF1
  binding signal: 0.619
ELF2
  binding signal: 0.792

## GAGGAA
HSF1
  binding signal: 0.605
ELF2
  binding signal: 0.883

## GTCGCA
HSF1
  binding signal: 0.558
ELF2
  binding signal: 0.7

## AGCCGT
HSF1
  binding signal: 0.437
ELF2
  binding signal: 0.449

## GGAATC
HSF1
  binding signal: 0.932
ELF2
  binding signal: 0.795

## TGCGAG
HSF1
  binding signal: 1.15
ELF2
  binding signal: 0.841

## CAGGTT
HSF1
  binding signal: 0.64
ELF2
  binding signal: 0.67

## TGTGTG
HSF1
  binding signal: 0.636
ELF2
  binding signal: 0.773

## GGACTA
HSF1
  binding signal: 0.935
ELF2
  binding signal: 0.822

## GCCATG
HSF1
  binding signal: 0.653
ELF2
  binding signal: 0.726

## TCGGTG
HSF1
  binding signal: 0.486
ELF2
  binding signal: 0.527

## CCCGTG
HSF1
  binding signal: 0.483
ELF2
  binding signal: 0.511

## CGGTCG
HSF1
  binding signal: 0.311
ELF2
  binding signal: 0.397

## GTGTGC
HSF1
  binding signal: 0.634
ELF2
  binding signal: 0.885
